Test results: paper PMC13193366
Results are given in words; binding and its absence hold for the method and conditions named. For part of these data: In cells and extracts the contact can be indirect. Where a sequence is shown, tags or fusion partners need not be part of it.

Columns and labels:
[1] = biological target: T1, RFP-ARR2 (35Spro::RFP-ARR2) (Arabidopsis thaliana) (UniProt Q9ZWJ9); test: FRET or BRET; FLIM-FRET: GFP fluorescence lifetime in nuclei of Nicotiana tabacum leaf epidermal cells co-expressing GFP- and mCherry/RFP-tagged proteins; measured within nuclear speckles (AtPWO1, SmPWOa) or in the nucleolus (SmPWOb)
T1 sequence: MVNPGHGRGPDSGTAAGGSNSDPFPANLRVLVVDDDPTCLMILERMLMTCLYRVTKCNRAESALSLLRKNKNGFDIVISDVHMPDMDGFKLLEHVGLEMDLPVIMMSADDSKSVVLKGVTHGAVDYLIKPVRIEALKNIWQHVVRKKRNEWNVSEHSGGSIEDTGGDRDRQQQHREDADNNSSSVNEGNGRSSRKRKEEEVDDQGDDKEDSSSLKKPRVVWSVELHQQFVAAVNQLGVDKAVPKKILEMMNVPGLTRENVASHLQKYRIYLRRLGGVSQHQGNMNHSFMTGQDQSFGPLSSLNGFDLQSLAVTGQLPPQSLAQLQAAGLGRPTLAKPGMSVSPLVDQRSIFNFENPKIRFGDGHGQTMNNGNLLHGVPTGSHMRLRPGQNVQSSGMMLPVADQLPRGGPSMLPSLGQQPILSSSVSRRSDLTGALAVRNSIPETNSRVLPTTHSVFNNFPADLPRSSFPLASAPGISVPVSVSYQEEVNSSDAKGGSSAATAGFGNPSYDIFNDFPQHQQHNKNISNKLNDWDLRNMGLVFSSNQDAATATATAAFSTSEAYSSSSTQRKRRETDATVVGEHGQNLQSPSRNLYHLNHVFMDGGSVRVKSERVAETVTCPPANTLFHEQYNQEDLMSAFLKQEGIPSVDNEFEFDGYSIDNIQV

[2] = biological target: T2, RFP-ARR1 (35Spro::RFP-ARR1; ARABIDOPSIS RESPONSE REGULATOR1) (Arabidopsis thaliana) (UniProt Q940D0); test: as above
T2 sequence: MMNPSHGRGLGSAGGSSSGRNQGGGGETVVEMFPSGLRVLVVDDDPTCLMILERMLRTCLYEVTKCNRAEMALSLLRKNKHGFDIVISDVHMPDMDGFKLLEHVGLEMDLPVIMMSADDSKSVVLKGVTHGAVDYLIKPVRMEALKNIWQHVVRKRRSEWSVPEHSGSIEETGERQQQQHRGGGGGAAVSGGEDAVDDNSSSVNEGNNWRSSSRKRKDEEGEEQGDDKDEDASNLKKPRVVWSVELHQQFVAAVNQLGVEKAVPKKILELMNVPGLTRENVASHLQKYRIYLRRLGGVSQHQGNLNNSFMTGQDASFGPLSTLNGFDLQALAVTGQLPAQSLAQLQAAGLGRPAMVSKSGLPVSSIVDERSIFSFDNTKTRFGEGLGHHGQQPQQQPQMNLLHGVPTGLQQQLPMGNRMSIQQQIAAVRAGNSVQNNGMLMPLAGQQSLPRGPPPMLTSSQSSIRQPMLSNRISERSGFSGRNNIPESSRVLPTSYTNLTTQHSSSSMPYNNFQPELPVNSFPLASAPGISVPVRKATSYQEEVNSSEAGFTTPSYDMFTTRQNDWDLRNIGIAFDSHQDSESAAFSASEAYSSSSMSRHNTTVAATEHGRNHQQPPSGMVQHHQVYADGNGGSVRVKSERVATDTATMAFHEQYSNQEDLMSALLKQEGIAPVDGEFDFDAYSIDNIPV

[3] = biological target: T3, PpCLF (Physcomitrium patens CLF), yeast two-hybrid fusion (Physcomitrium patens) (UniProt C0STZ0); test: two-hybrid; yeast two-hybrid of AtPWO2 (Fig. S12C); selection medium not told for this experiment
T3 sequence: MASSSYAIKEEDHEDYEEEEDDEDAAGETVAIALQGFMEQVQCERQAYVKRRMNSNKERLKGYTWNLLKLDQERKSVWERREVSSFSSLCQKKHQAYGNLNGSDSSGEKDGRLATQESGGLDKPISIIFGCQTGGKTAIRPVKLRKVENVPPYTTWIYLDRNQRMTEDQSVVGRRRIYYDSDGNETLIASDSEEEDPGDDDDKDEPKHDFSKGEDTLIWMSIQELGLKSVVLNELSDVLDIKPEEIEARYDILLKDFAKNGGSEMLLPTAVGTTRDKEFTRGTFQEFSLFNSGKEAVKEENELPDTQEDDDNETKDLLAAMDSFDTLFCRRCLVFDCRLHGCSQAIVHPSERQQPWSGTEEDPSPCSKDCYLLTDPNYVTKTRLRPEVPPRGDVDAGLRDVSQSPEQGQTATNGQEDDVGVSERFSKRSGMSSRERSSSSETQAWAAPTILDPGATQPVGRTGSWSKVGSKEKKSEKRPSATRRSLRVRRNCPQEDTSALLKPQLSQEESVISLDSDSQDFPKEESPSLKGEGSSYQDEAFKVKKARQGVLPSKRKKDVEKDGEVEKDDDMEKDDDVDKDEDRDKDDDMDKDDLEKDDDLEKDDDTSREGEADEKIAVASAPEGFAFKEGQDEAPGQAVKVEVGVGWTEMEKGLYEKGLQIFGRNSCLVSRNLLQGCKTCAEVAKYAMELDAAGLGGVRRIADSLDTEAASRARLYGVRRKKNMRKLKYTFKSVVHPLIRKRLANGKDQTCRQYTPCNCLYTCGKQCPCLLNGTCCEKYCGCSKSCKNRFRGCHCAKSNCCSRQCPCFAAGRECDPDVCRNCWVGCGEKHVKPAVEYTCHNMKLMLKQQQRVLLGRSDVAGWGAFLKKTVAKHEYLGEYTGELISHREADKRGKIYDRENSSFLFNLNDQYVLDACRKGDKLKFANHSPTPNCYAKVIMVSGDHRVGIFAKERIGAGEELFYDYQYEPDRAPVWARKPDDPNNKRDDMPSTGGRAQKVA

B1: AtPWO1-GFP (i35Spro::AtPWO1-GFP) (protein, UniProt Q9M9N3 1-769)
chain: MASPGSGAVDWTVGSIVWVRRRNGSWWPGRILGQEDLDSTHITSPRSGTPVKLLGREDASVDWYNLEKSKRVKPFRCGDFDECIERVESSQAMIIKKREKYARREDAILHALELEKEMLKREGKLVPEKARDDSLDATKERMAIVRVQDTSNGTRESTDYLRTNHVGDVMHLLRDKEEDQPSCEDEAVPRMRGLQDFGLRTASSKRKISCSNGPDTSFKYLARSNSSASSSGDHSMERPIYTLGKEKTKSRAEAKRTKYMFTPSESNDVSDLHENLLSHRDAMHSSFAGGDTRYSDYDPPNFLEDMESDYSESETDSSDMEEDTDDDIPLLSGAGRHSERRNTFSRHTSGEDESTSSEEDHYESSISGDSSYLYSQNPNNEASTVSNWQHKGKRNFRTLPRRSARKRKLHRNRLEDGRYCEYKRRAFGQKPMGYGLDFNGINDMSDGTDDTDPNERQFGDRMIVPGDDYQLSNVVASRCKNIYSHDMLDWDDDPWEGRIGMKKRGEEKLEGLGQEFDVSERHFGRKTYSSLMDVDLEVRGSYQKGPVPIVSLMSKLNGRAIIGHPVEVEVLADGSSESYIQTIDYFGNETTYQDKTFLLPSAWKTARRSNSRVPRLQPFSSSVEADDDATYDYSLADQGRKPLVKKLGLGHFSNDDNSVRRNSSLRIPRPPAERKQQHQQQQKKLLKNTNATASQKTRALSSFSGEQGHNGMKASRDRTHELSNRRVLPGPPTVACIPVKLVYSRLLEKINRPPSKPTAKAFNERRRVQ
binding [1]: no binding | binding [2]: no binding

B2: AtPWO2, yeast two-hybrid fusion (protein, UniProt P59278 1-597)
chain: MESNDDRNLEAINASVGRLVWVRRRNGSWWPGQTLVHDQVPDNSLVGPKVGTPIKLLGRDDVSVDWYILENSKTVKAFRCGEYDTCIEKAKASSSKKRSGKCTLREDAINNALKIENEHLAKEDDNLCNLSGEEDSKRCLSGKEDEDSGSSDAEETEDDELASAPEQLQSSISSQEMNNVGASKVQSKRRRTPNDSEDDGTEGVKRMRGLEDIGKEQAGGIVEHKQDLDLICAVGLSDSVSNGNTIANGNKVCSPSSLKRNVSECSKRKNRRRQLTKVLESTAMVSVPVTCDQGVSLDCQGIYDSKVSGMESVESMKSVSVVINNNSDSTGVSCEDAYENVVGASHNNKAKDSEISSISVSAEDDSSDRLFDVPLTGEENHSEGFPAACRISSPRKALVTDLTRRCGRNSHNVFVKNEASNGSACTSPPASEPVNCILSGIEKNTSKWQLKGKRNSRQMSKKQEERRNVYGEEANNNSSTPHSTLYEVKIEVKASYTKPRVPLVSRMSELSGKAIVGHPLSVEILEEDYSNGMVMPPVVAKAKSLPKKNGKKQTTEKAKETVVACIPLKVVFSRINEVLKGSARQTQHRALPSAAKT
binding [3]: no binding
